Experimental data published in PubChem BioAssay AID493014 (National Center for Advancing Translational Sciences (NCATS), 2011).
This is one part of the list. These are further read-outs of the screen, such as a control signal, another cell line or another target. No call is given for them. Most of these compounds were active or inconclusive in the main read-out, so they are no random draw. Words in brackets tell the shape of the fitted curve; partial curves, single points and poor fits give uncertain potencies.

Test: qHTS Assay to Find Inhibitors of Chronic Active B-Cell Receptor Signaling
Settings: ABC-DLBCL IkBa-CBG/CBR reporter, luminescence ratio (green luciferase fused to IkBa over red control in TMD8 lymphoma cells), 4 h
Outline: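 TMD8 human ABC-DLBCL cells with doxycycline-inducible IκBα–green luciferase fusion and unfused red luciferase, in 0.5% FBS medium; compounds up to 46 uM, 4 h at 37C. Green/red luminescence ratio, filter-overlap corrected, fitted to concentration-response curves.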

[1] = measured here: CBR red luminescence, cell number
[2] = measured here: IkBa-CBG green luminescence

Structure (SMILES): Cc1ccc(NC(=O)C2=CCN(S(=O)(=O)c3ccc(F)cc3)CC2)cc1
- AC50 [1]: 16.4 µM [rising, partial curve, poor fit]

Structure (SMILES): Cc1ccc(-c2cc(C(=O)OCC(=O)N(C)C3CCS(=O)(=O)C3)c3ccccc3n2)c(C)c1 (configuration not stated)
- AC50 [1]: 35.5 µM [falling, single point]

Structure (SMILES): CCCc1cc(-c2nc(-c3ccc(C)cc3)cs2)ccn1
- AC50 [1]: 11.6 µM [rising, partial curve]

Structure (SMILES): CC(C)C(=O)Nc1ccc(-c2csc(-c3ccccc3)n2)cc1
- AC50 [1]: 2.51 µM [rising, full curve, poor fit]

Structure (SMILES): N/C(=N\OC(=O)COc1ccc(Cl)cc1Cl)c1ccncc1
- AC50 [1]: 2.51 µM [rising, full curve]

Structure (SMILES): Cc1ccc(C(=O)N2CCN(c3ccc([N+](=O)[O-])c(NCc4cccnc4)c3)CC2)cc1
- AC50 [1]: 4.11 µM [rising, partial curve, poor fit]

Structure (SMILES): Cc1ccc(N2CC(C(=O)Nc3nccs3)CC2=O)cc1Cl (configuration not stated)
- AC50 [1]: 13 µM [falling, partial curve, poor fit]
- AC50 [2]: 25.9 µM [rising, partial curve, poor fit]

Structure (SMILES): Cc1oc(=O)c(NC(=O)c2ccccc2)cc1C(=O)c1ccccc1
- AC50 [1]: 3.55 µM [falling, full curve]

Structure (SMILES): CCn1c2ccccc2c2nnc(NN)nc21
- AC50 [1]: 25.9 µM [falling, single point]

Structure (SMILES): CSc1nc(NCC(C)O)c2c3c(sc2n1)CN(C)CC3 (configuration not stated)
- AC50 [1]: 17.8 µM [falling, partial curve, poor fit]

Structure (SMILES): COc1cccc(/C=N/c2oc(-c3ccccc3)cc2C#N)c1O
- AC50 [1]: 8.2 µM [falling, partial curve, poor fit]

Structure (SMILES): O=C(N/N=C/c1ccc2c(c1)OCO2)c1cccs1
- AC50 [1]: 5.8 µM [falling, partial curve]

Structure (SMILES): Cc1[nH]c2ccccc2c1C(O)CN1CCN(c2cccc(C(F)(F)F)c2)CC1 (configuration not stated)
- AC50 [1]: 3.55 µM [falling, full curve, poor fit]

Structure (SMILES): C/C(CCc1oc2ccc(Cl)cc2c1-c1ccc(C)o1)=N\O
- AC50 [1]: 25.9 µM [falling, single point]

Structure (SMILES): O=C(O)C1C2C=CC(C2)C1C(=O)N1CCc2ccccc21 (configuration not stated)
- AC50 [1]: 29.1 µM [falling, partial curve, poor fit]

Structure (SMILES): O=C(CSc1nc2ccccc2n1S(=O)(=O)c1cccc([N+](=O)[O-])c1)NCCc1ccccc1
- AC50 [1]: 9.2 µM [rising, partial curve, poor fit]

Structure (SMILES): CCOC(=O)c1nc(Nc2ccc(C)cc2)c2ccccc2n1
- AC50 [1]: 32.6 µM [falling, single point]

Structure (SMILES): COc1ccc(NC(=O)CC2CC3CCC2C3)cn1 (configuration not stated)
- AC50 [1]: 7.94 µM [rising, partial curve, poor fit]

Structure (SMILES): Cc1ccccc1C(=O)NC1CC2CCC(C1)N2Cc1ccccc1 (configuration not stated)
- AC50 [1]: 35.5 µM [falling, single point]

Structure (SMILES): Cc1ccc(S(=O)(=O)c2nc(NCCN(C)C)sc2Cl)cc1
- AC50 [1]: 0.82 µM [rising, full curve, poor fit]

Structure (SMILES): O=C(N/N=C/c1ccc(Cl)cc1)c1ccc2c(c1)OCO2
- AC50 [1]: 7.94 µM [falling, partial curve]

Structure (SMILES): COc1ccc(C(=O)Nc2nc3ccccc3[nH]2)cc1S(=O)(=O)N1CCCC1
- AC50 [1]: 2.91 µM [falling, partial curve, poor fit]

Structure (SMILES): O=C(Nc1nnc(-c2ccc3c(c2)CCCC3)o1)c1ccc(Cl)cc1Cl
- AC50 [1]: 29.1 µM [falling, single point]

Structure (SMILES): COc1cccc2c1[C@@H]1CN(CCCCn3c(=O)[nH]c4c(sc5ncc(-c6ccccc6)nc54)c3=O)C[C@@H]1CO2
- AC50 [1]: 20.6 µM [falling, single point]
- AC50 [2]: 32.6 µM [rising, partial curve, poor fit]

Structure (SMILES): COC(=O)c1ccc(NC(=O)Nc2ccc([N+](=O)[O-])cc2)cc1
- AC50 [1]: 3.16 µM [falling, partial curve, poor fit]

Structure (SMILES): CCOc1ccc(S(=O)(=O)N2CCC(C(=O)Nc3cccc(NC(C)=O)c3)CC2)cc1
- AC50 [1]: 2 µM [falling, partial curve]

Structure (SMILES): CC(=O)Nc1ccc2c(c1)ncn2-c1ccccc1
- AC50 [1]: 11.2 µM [falling, partial curve]

Structure (SMILES): CCOC(=O)/C(=N/Nc1ccc(OC)cc1)N1CCCc2ccccc21
- AC50 [1]: 3.16 µM [rising, partial curve, poor fit]

Structure (SMILES): COc1ccc(C(=O)OCC(=O)c2ccc(Cl)s2)c(OC)c1OC
- AC50 [1]: 7.31 µM [rising, partial curve, poor fit]

Structure (SMILES): COc1ccc(OCc2n[nH]c(=S)o2)cc1
- AC50 [1]: 29.1 µM [falling, single point]

Structure (SMILES): CC(=O)c1c(Nc2cccc(F)c2)oc(C)cc1=O
- AC50 [1]: 35.5 µM [rising, partial curve, poor fit]

Structure (SMILES): Cc1cc(C(=O)N/N=C/c2ccc3c(c2)OCO3)c2ccccc2n1
- AC50 [2]: 15.8 µM [falling, partial curve, poor fit]

Structure (SMILES): Cc1ccc(OCc2cc(C(=O)NC(C)Cc3cnccn3)no2)cc1C (configuration not stated)
- AC50 [1]: 17.8 µM [falling, single point]

Structure (SMILES): CCOc1ccc(C2C(C#N)=C(N)Oc3cc(C)n(Cc4ccco4)c(=O)c32)cc1OC (configuration not stated)
- AC50 [1]: 1.3 µM [rising, full curve]

Structure (SMILES): O=c1c2ccccc2nc(/C=C/c2ccc(O)cc2)n1CCc1ccccc1
- AC50 [1]: 1.3 µM [falling, full curve]

Structure (SMILES): Clc1ccc(CON/C=N/c2ncnc3sccc23)cc1
- AC50 [1]: 2.51 µM [falling, full curve]

Structure (SMILES): CC1(CCc2ccccc2)NC(=S)N(c2ccc(Cl)cc2)N1 (configuration not stated)
- AC50 [1]: 2.91 µM [rising, partial curve, poor fit]

Structure (SMILES): COc1ccc(-c2cn3nc(SCC(=O)NCC4CCCO4)ccc3n2)cc1 (configuration not stated)
- AC50 [1]: 0.447 µM [falling, full curve, poor fit]

Structure (SMILES): Cc1ccc(-c2csc(NC(=O)/C=C/c3ccco3)c2C(=O)O)cc1
- AC50 [1]: 20 µM [falling, single point]

Structure (SMILES): Cc1ccc(C)c(N2CCN(CCCNC(=O)CCC(=O)N3CCOc4ccc(Cl)cc43)CC2)c1
- AC50 [1]: 11.2 µM [falling, partial curve, poor fit]
